Reference: US6495529B1 (Warner-Lambert Company, priority 1998, dated 2002)

Amino acid sequences for entries named in this document (tags omitted).
UniProt P54833, whole entry: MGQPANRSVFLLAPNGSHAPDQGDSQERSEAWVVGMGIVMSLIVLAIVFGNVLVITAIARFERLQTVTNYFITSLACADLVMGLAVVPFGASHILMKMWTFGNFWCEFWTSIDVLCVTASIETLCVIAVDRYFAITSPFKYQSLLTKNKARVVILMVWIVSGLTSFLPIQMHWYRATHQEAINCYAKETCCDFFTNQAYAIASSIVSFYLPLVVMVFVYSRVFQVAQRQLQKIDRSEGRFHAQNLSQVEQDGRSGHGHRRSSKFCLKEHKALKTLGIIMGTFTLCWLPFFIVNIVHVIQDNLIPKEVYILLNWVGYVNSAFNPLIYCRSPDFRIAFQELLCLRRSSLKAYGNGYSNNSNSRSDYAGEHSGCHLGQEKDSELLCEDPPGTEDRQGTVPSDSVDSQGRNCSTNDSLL

Target: T1, β2-receptors (Canis lupus familiaris, UniProt P54833)
T1 construct: The lungs of mongrel dogs were separated from cartilaginous airways and major blood vessels; from tissue; host or cells: mongrel dog lung membranes
Experiment: BETA-2 binding, 125Iodocyanopindolol (ICYP), canine lung membranes
Set-up: species or system dog
Details: check for β1 binding, β1-selective antagonist

CC(C)NCC(O)COc1ccc(CC(N)=O)cc1 (stereo not shown) [Atenolol, atenolol]
displacement of ICYP from pulmonary membranes: largely ineffective in displacing ICYP
